Source: PubChem BioAssay AID1159584 (Peter MacCallum Cancer Centre, 2016)
Here is an unselected part of about 18,000 deposited reagents. Reagent sequences are not shown. Not given: the amount of reagent, the time to read-out.

Assay: 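Knock-downs that harm CDH1-null cells more than parental MCF10A cells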 (primary screen)
System: human MCF10A breast epithelial cells, parental and CDH1-null
Knock-down reagent: siRNA against human genes
Measured: 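ATP luminescence (CellTiter-Glo) viability per line relative to mean mock wells over all plates, and the ratio of CDH1-null to parental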
Reading the numbers: CDH1-null / parental viability ratio: higher = CDH1-null cells survive relatively better than parental; CDH1-null viability vs mock: higher = more viable CDH1-null cells; parental viability vs mock: higher = more viable parental cells

target gene,CDH1-null / parental viability ratio,CDH1-null viability vs mock (fraction of mock),parental viability vs mock (fraction of mock)
CCZ1B (GeneID 221960),0.98,0.96,0.98
WFDC6 (GeneID 140870),0.87,0.4,0.46
CXorf58 (GeneID 254158),1.14,0.88,0.77
SLC39A12 (GeneID 221074),1.13,1.16,1.03
SLC9A6 (GeneID 10479),1.04,1.04,1
KIN (GeneID 22944),1.45,0.81,0.56
PSMA1 (GeneID 5682),1.33,0.4,0.3
ILF2 (GeneID 3608),1.09,0.86,0.79
TUSC3 (GeneID 7991),0.98,0.98,1
CDC16 (GeneID 8881),0.88,0.58,0.66
OR9I1 (GeneID 219954),1.05,0.63,0.6
SLC16A1 (GeneID 6566),0.98,1,1.02
RPN2 (GeneID 6185),0.86,0.66,0.77
NEB (GeneID 4703),1.08,0.97,0.9
GPER1 (GeneID 2852),1,0.73,0.73
S100A1 (GeneID 6271),1.32,0.62,0.47
SNAP29 (GeneID 9342),1.12,0.9,0.8
FZD8 (GeneID 8325),0.73,0.66,0.9
ITGA1 (GeneID 3672),1.42,0.68,0.48
UAP1L1 (GeneID 91373),1.05,0.92,0.88
HOXB2 (GeneID 3212),0.99,1.08,1.09
BATF (GeneID 10538),1.24,0.72,0.58
TCEA2 (GeneID 6919),0.94,0.82,0.87
CELSR2 (GeneID 1952),0.87,0.67,0.77
MTFR1L (GeneID 56181),1.21,0.75,0.62
PHLPP1 (GeneID 23239),1.03,1.12,1.09
CITED1 (GeneID 4435),1.36,0.94,0.69
ACD (GeneID 65057),1.26,0.53,0.42
RASGEF1B (GeneID 153020),1.24,0.94,0.76
DMAP1 (GeneID 55929),1.45,0.61,0.42
MMP23B (GeneID 8510),1.23,0.86,0.7
FAM47B (GeneID 170062),1.07,0.94,0.88
SPINK1 (GeneID 6690),1.03,1.19,1.15
GORASP1 (GeneID 64689),1.15,0.76,0.66
RIT1 (GeneID 6016),0.9,0.92,1.02
ZHX1 (GeneID 11244),0.95,0.88,0.93
DDX59 (GeneID 83479),1.05,0.82,0.78
FBXO48 (GeneID 554251),1.13,0.94,0.83
TCP1 (GeneID 6950),1.29,1.01,0.78
TBC1D29P (GeneID 26083),0.99,0.76,0.77
GNAT1 (GeneID 2779),0.62,0.59,0.95
SLC51B (GeneID 123264),1.14,0.64,0.56
NXPE2 (GeneID 120406),0.97,0.85,0.88
PDZK1 (GeneID 5174),1.08,0.95,0.88
CYB5D2 (GeneID 124936),1.2,0.98,0.82
KANK3 (GeneID 256949),0.83,0.58,0.7
PARPBP (GeneID 55010),0.88,0.9,1.02
SYT17 (GeneID 51760),0.74,0.64,0.86
NELFB (GeneID 25920),1.13,0.68,0.6
S1PR5 (GeneID 53637),0.88,0.74,0.84
SEMA4B (GeneID 10509),0.75,0.46,0.61
REG1B (GeneID 5968),0.85,0.64,0.75
ADGRG3 (GeneID 222487),0.93,0.7,0.75
SLC7A2 (GeneID 6542),0.96,0.9,0.94
COXFA4 (GeneID 4697),0.95,0.84,0.88
SRCAP (GeneID 10847),0.87,0.54,0.62
EPCAM (GeneID 4072),1.07,0.9,0.84
GRAMD1A (GeneID 57655),0.88,1.01,1.15
ACAD10 (GeneID 80724),0.92,0.72,0.78
OSBPL3 (GeneID 26031),0.79,0.58,0.73
SLC44A1 (GeneID 23446),1.03,0.6,0.58
BOP1 (GeneID 23246),0.91,0.64,0.7
TRIM61 (GeneID 391712),0.97,0.77,0.79
MFSD11 (GeneID 79157),0.63,0.44,0.7
CAPZB (GeneID 832),0.86,0.55,0.64
PEBP4 (GeneID 157310),0.96,0.72,0.75
ARHGEF1 (GeneID 9138),0.98,0.62,0.63
WDR83OS (GeneID 51398),0.96,0.54,0.56

Looked up above.
BOP1 (GeneID 23246), CDH1-null / parental viability ratio = 0.91
DMAP1 (GeneID 55929), CDH1-null / parental viability ratio = 1.45
Under “CDH1-null / parental viability ratio”, SYT17 (GeneID 51760) shows 0.74
For “parental viability vs mock (fraction of mock)”, CITED1 (GeneID 4435) has 0.69
Value of ARHGEF1 (GeneID 9138) under “CDH1-null viability vs mock (fraction of mock)”: 0.62
Entry of OSBPL3 (GeneID 26031) under “parental viability vs mock (fraction of mock)”: 0.73
